Experiment [1] concerns the target T1, MLKL (endogenous, HT-29 cells) (human (endogenous in HT-29)) (UniProt Q8NB16).
T1 sequence: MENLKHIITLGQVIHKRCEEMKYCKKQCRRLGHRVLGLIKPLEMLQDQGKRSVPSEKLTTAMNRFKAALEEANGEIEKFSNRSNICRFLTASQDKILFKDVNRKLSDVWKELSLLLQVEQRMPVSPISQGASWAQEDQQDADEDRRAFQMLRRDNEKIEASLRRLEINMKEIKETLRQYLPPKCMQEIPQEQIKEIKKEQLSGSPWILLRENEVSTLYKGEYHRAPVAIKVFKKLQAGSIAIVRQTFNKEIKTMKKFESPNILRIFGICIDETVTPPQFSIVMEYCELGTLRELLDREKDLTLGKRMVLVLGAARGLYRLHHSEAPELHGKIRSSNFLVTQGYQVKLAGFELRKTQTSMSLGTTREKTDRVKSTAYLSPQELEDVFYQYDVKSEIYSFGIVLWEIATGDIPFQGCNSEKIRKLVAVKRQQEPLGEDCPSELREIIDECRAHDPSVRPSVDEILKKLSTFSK
As to the kind of experiment: co-IP; HT-29 cells, control or treated with TSZ or TSZ + Nec-1s for 4 h; lysates immunoprecipitated with MLKL antibody, western blot; lysis buffer 50 mM Tris-HCl pH 7.2, 150 mM NaCl, 0.5% NP40.

Amino acid sequences for entries named in this document (tags omitted).
UniProt Q13263: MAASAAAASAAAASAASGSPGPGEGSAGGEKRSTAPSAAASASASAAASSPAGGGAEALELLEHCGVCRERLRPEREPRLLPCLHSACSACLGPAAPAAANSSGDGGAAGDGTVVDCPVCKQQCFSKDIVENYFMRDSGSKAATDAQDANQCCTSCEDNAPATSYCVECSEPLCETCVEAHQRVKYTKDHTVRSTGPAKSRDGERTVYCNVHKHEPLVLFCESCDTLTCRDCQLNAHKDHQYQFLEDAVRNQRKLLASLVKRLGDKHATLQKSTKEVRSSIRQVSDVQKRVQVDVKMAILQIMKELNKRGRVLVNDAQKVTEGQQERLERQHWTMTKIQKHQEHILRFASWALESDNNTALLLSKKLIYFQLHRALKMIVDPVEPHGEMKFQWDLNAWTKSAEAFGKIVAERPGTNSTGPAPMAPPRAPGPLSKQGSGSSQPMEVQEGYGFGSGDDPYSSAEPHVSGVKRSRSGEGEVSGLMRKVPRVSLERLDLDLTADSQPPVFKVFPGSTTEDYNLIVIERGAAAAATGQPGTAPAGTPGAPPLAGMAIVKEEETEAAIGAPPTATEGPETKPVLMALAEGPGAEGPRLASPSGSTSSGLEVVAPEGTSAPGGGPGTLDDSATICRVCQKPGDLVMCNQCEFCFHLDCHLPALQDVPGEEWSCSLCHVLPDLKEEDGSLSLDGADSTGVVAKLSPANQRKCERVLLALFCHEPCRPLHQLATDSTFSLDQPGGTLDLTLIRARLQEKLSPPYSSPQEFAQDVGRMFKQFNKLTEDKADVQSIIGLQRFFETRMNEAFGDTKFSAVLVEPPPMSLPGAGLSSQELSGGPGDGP

The target in the next experiment is T2, Flag-MLKL-Q356A (human) (UniProt Q8NB16).
T2 sequence: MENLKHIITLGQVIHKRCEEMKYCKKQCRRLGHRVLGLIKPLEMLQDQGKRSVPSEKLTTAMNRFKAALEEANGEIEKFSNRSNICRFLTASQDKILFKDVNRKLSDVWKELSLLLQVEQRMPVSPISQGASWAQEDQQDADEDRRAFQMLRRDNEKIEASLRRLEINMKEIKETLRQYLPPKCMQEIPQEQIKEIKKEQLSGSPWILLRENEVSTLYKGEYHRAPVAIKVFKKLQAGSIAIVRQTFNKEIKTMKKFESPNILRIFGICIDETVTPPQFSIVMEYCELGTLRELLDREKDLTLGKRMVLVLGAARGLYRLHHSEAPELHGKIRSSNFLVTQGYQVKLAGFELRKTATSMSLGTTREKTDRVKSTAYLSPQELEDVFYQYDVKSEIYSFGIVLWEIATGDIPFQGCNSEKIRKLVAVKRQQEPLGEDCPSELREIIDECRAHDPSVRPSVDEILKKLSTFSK
As to the kind of experiment: co-IP; 293T cells with tet-inducible Flag-MLKL Q356A, after doxycycline induction, with or without NSA; lysates immunoprecipitated with anti-Flag resin, western blot. (A western blot detects proteins with antibodies after separation by electrophoresis.)

The next experiment deals with HA-TRIM28 (human) (UniProt Q13263). Briefly: co-IP; 293T cells transfected with GFP-MLKL and HA-TRIM28 for 24 h; lysates immunoprecipitated with anti-HA resin, western blot.

Results are given in words; binding and its absence hold for the method and conditions named. Binding seen in cells or lysates may run through a third protein. Some entries that bind do so weakly or less than the wild type. For some assays here: Tags and fused reporters may be left off the sequences shown.

Turning to “TRIM28 (endogenous, HT-29 cells) (from UniProt Q13263 1-835)”, in experiment [1], the binding entry is listed as “binds”.
On to “p-S473 TRIM28 (endogenous, 293T cells) (from UniProt Q13263 1-835)”, for which the binding result in the experiment with Flag-MLKL-Q356A (human) is given as “binds”.
Consider “p-S473 TRIM28 (endogenous, HT-29 cells) (from UniProt Q13263 1-835)”, for which the binding result in experiment [1] is recorded as “binds”.
Take “TRIM28 (endogenous, 293T cells) (from UniProt Q13263 1-835)”: the binding entry in the experiment with Flag-MLKL-Q356A (human) is on record as “binds”.

B1: GFP-MLKL (protein, UniProt Q8NB16 1-471)
chain: MENLKHIITLGQVIHKRCEEMKYCKKQCRRLGHRVLGLIKPLEMLQDQGKRSVPSEKLTTAMNRFKAALEEANGEIEKFSNRSNICRFLTASQDKILFKDVNRKLSDVWKELSLLLQVEQRMPVSPISQGASWAQEDQQDADEDRRAFQMLRRDNEKIEASLRRLEINMKEIKETLRQYLPPKCMQEIPQEQIKEIKKEQLSGSPWILLRENEVSTLYKGEYHRAPVAIKVFKKLQAGSIAIVRQTFNKEIKTMKKFESPNILRIFGICIDETVTPPQFSIVMEYCELGTLRELLDREKDLTLGKRMVLVLGAARGLYRLHHSEAPELHGKIRSSNFLVTQGYQVKLAGFELRKTQTSMSLGTTREKTDRVKSTAYLSPQELEDVFYQYDVKSEIYSFGIVLWEIATGDIPFQGCNSEKIRKLVAVKRQQEPLGEDCPSELREIIDECRAHDPSVRPSVDEILKKLSTFSK
In the case of B1, in the experiment with HA-TRIM28 (human), the binding entry is reported as “binds”.

These data come from publication PMC8542044.
